Assay results taken from the supplement of paper PMC11006884.
Only a part is listed here, and it is no random draw.

Amino acid sequences for entries named in this document (tags omitted). A change or cut given only in a name is not applied to a line headed by its entry.
UniProt Q15796, whole entry, looked up: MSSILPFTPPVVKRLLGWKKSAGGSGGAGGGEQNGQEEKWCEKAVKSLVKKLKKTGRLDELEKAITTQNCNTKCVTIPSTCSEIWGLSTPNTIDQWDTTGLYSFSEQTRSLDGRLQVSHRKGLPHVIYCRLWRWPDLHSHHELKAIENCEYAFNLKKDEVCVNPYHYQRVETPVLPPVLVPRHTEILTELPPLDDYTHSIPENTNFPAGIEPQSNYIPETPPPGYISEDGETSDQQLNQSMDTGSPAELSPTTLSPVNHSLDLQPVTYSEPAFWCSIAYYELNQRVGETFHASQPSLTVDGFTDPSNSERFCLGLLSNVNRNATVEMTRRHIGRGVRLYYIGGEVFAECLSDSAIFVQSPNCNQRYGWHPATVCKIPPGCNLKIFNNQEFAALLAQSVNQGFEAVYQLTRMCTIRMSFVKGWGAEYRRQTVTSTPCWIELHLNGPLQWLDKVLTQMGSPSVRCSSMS
UniProt Q15643: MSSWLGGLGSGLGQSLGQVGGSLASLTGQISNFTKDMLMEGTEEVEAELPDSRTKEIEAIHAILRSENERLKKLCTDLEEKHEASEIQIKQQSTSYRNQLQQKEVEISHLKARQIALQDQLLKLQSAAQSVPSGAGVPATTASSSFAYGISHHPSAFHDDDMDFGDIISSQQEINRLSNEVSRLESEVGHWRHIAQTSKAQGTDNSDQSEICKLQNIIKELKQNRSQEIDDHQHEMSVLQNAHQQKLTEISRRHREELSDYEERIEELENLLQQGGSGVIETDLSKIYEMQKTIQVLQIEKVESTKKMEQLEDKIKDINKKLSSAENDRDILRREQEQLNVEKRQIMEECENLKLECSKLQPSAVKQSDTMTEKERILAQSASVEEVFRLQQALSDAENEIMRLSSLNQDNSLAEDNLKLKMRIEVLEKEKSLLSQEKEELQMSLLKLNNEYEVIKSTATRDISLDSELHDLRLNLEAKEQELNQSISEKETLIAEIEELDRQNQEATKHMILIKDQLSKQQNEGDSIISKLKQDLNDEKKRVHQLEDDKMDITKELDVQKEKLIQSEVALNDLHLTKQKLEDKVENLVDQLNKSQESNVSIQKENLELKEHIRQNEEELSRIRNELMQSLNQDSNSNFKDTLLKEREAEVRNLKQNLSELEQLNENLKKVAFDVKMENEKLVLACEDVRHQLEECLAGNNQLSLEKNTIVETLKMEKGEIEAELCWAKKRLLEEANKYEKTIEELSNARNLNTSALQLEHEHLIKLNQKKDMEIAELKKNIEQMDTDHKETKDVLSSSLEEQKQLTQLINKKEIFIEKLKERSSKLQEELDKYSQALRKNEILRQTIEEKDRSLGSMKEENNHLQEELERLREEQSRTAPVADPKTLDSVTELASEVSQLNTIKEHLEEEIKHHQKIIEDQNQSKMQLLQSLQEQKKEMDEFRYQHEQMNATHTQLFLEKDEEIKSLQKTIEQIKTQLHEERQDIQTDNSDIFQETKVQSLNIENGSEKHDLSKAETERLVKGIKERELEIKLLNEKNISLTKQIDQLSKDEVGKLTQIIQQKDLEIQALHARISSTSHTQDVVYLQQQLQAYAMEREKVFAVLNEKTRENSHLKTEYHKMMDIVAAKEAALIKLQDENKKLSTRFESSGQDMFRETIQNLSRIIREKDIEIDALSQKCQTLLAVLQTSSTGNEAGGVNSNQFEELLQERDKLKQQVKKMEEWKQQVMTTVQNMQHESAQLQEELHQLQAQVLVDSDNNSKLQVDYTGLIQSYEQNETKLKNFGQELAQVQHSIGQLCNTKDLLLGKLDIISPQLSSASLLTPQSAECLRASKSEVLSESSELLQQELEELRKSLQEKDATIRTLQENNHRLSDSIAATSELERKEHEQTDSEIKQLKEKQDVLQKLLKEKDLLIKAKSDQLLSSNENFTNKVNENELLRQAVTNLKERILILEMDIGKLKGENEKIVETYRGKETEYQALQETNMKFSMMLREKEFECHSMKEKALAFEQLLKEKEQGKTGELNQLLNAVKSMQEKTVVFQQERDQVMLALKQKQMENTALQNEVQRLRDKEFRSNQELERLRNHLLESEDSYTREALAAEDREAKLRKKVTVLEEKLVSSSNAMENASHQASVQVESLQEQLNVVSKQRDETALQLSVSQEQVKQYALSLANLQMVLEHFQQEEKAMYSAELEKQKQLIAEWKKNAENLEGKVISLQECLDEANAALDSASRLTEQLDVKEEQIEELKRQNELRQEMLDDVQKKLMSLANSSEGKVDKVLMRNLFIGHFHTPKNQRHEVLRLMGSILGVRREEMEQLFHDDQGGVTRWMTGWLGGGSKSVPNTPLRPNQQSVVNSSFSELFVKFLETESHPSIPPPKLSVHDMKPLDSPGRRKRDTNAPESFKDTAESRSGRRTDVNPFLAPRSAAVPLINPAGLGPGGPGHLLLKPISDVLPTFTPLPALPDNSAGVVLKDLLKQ
UniProt Q2M3G4: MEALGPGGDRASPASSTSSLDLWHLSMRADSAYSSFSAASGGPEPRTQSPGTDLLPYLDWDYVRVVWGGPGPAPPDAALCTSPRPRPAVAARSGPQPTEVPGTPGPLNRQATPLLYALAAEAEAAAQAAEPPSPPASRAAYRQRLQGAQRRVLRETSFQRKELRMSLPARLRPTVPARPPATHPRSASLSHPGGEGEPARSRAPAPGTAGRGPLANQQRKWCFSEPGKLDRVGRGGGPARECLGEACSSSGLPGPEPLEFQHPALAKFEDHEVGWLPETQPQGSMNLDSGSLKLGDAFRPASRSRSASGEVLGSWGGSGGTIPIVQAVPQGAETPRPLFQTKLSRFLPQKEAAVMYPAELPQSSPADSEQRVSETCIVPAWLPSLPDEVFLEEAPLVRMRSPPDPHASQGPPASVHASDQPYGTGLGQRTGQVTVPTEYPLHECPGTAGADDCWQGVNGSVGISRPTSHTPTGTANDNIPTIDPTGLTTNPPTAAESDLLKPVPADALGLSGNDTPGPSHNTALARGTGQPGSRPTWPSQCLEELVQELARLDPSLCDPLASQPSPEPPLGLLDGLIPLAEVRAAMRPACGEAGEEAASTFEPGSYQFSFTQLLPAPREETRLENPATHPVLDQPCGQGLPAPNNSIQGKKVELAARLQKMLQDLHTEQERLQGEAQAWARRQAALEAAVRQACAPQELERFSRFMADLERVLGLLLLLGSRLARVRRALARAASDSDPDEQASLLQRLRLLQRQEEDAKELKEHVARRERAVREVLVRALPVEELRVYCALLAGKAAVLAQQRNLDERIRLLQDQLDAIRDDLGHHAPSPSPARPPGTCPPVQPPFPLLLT
UniProt Q15834: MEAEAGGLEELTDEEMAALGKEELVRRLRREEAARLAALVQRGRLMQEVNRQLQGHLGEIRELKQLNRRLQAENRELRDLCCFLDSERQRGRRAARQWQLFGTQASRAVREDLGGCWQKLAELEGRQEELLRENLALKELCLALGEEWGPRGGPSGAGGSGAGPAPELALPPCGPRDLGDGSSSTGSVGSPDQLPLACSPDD
UniProt Q49A26: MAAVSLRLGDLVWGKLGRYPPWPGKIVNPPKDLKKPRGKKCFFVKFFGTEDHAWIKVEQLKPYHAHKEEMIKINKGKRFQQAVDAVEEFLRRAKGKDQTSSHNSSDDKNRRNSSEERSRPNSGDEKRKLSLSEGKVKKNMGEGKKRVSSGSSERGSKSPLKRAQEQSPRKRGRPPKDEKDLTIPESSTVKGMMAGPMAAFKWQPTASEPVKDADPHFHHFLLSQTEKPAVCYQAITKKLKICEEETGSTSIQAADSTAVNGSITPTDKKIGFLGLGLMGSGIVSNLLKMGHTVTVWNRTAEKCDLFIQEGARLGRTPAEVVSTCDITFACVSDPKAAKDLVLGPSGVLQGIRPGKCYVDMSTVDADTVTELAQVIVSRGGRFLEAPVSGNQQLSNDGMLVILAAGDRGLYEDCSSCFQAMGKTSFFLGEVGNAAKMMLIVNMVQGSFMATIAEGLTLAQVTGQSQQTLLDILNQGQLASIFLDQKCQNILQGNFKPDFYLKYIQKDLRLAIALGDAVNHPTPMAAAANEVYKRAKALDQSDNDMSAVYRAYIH
UniProt Q16643: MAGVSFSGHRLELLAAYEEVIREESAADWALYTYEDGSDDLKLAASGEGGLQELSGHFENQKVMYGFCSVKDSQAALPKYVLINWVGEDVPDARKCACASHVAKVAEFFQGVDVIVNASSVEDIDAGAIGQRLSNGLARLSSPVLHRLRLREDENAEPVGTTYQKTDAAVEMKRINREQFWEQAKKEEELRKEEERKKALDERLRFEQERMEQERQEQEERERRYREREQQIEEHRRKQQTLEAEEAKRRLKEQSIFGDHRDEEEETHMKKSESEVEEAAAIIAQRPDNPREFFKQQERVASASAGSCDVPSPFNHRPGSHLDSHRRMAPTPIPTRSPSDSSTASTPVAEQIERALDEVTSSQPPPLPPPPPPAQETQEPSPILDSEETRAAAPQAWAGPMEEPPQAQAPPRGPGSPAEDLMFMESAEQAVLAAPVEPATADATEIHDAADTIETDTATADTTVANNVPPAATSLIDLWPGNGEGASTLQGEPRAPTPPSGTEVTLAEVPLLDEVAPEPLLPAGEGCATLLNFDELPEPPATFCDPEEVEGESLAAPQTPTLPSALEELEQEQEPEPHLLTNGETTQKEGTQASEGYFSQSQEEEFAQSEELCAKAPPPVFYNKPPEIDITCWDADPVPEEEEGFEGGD
UniProt Q15042: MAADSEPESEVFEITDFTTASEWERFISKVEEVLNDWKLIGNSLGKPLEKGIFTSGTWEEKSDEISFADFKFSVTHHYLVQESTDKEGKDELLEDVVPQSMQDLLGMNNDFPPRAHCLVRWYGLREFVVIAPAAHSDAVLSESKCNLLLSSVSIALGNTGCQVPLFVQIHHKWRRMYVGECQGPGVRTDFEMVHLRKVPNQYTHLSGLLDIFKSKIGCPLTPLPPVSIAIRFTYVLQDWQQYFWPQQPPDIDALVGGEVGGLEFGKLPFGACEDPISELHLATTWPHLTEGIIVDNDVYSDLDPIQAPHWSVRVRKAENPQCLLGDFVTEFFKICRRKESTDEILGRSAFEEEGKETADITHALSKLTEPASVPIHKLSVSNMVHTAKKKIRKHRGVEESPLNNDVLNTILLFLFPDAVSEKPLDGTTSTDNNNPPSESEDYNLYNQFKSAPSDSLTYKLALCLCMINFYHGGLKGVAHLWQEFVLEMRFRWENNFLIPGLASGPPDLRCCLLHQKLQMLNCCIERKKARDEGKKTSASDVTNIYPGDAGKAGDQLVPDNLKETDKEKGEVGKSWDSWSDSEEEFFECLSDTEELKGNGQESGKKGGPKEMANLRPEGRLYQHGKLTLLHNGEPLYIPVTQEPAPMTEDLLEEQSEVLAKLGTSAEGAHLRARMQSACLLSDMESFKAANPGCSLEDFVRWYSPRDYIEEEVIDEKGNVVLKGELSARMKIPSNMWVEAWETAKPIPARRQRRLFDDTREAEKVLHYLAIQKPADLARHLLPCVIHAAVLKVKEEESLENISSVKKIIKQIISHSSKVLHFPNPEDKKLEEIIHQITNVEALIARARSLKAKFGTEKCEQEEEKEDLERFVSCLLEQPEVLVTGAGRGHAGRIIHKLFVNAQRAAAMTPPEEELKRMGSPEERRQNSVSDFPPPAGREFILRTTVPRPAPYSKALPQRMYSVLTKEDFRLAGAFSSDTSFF
UniProt Q15311: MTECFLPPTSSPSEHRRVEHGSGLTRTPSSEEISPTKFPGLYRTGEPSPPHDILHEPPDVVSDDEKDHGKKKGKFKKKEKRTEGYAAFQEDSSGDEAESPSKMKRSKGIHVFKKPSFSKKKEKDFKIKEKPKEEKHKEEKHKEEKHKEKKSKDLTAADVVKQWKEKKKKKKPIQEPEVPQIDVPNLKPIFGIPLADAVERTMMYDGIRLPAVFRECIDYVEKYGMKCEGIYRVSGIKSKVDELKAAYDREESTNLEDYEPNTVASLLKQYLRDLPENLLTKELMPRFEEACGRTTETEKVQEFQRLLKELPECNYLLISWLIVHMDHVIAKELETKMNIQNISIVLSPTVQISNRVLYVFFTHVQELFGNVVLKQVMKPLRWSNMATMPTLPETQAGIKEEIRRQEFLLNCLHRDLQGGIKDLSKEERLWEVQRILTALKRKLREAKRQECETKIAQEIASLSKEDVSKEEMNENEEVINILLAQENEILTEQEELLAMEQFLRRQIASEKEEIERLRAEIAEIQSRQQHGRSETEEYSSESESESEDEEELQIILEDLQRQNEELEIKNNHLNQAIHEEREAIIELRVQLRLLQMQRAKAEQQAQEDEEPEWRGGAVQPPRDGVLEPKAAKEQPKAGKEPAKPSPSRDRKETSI
UniProt Q16611: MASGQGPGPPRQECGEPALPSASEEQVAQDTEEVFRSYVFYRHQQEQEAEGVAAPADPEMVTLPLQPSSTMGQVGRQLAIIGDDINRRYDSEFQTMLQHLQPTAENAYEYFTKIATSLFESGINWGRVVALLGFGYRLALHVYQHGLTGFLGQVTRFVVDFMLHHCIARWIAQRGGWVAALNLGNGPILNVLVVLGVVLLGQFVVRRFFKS

compound: COC(=O)C#Cc1ccccc1 [methyl 3-phenylpropiolate]; assay: log2 ratio of iodoacetamide-alkyne labeling of the cysteine site, DMSO over compound (competition); higher = stronger covalent engagement of the cysteine by the compound, active = 1 or more; details: 500 µM; treatment time 1 h; system: HEK293T cell lysate
How it was run: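 Reporter intensities give each cysteine's log2 competition ratio as the mean of control channels over the mean of compound channels. The samples were HEK293T lysate (2 mg/mL) given vehicle or electrophile (500 µM, 1 h, ambient temperature), then iodoacetamide alkyne (1 h), followed by click coupling to sCIP-TMT reagents, pooling, trypsin digestion overnight at 37 °C, streptavidin enrichment, acid elution, Orbitrap Eclipse LC-MS/MS with FAIMS and FragPipe quantification. Duplicate channels and three replicates were run, and cysteines quantified in only one replicate were discarded.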

Target	log2 ratio of iodoacetamide-alkyne labeling
ACOX1 C199 (UniProt Q15067)	inactive: 0.0457
PTPN14 C1082 (UniProt Q15678)	inactive: 0.038
SETDB1 C92 (UniProt Q15047)	inactive: 0.252
RBBP7 C202 (UniProt Q16576)	inactive: 0.321
SMAD2 C312 (UniProt Q15796)	inactive: 0.118
TRIP11 C212 (UniProt Q15643)	inactive: 0.105
SHROOM1 C376 (UniProt Q2M3G4)	inactive: 0.115
PDS5A C589 (UniProt Q29RF7)	inactive: 0.582
TARBP2 C282 (UniProt Q15633)	inactive: 0.513
TSR1 C329 (UniProt Q2NL82)	inactive: 0.425
RBBP7 C277 (UniProt Q16576)	inactive: 0.408
EXOSC7 C85 (UniProt Q15024)	inactive: -0.0747
PCM1 C957 (UniProt Q15154)	active: 2.43
LRRFIP1 C644 (UniProt Q32MZ4)	inactive: 0.348
CCDC85B C173 (UniProt Q15834)	inactive: 0.334
PDCD4 C275 (UniProt Q53EL6)	inactive: 0.697
HNRNPUL2 C57 (UniProt Q1KMD3)	inactive: 0.32
JMJD1C C508 (UniProt Q15652)	inactive: 0.554
GLYR1 C356 (UniProt Q49A26)	inactive: -0.00279

Target	log2 ratio of iodoacetamide-alkyne labeling
NONO C208 (UniProt Q15233)	inactive: 0.111
UniProt Q15750_C62	inactive: 0.202
SUZ12 C325 (UniProt Q15022)	active: 1.07
DBN1 C613 (UniProt Q16643)	inactive: 0.258
KIF14 C442 (UniProt Q15058)	inactive: 0.0677
KIF14 C471 (UniProt Q15058)	inactive: 0.309
UniProt Q15042_C335	inactive: 0.153
RALBP1 C451 (UniProt Q15311)	inactive: 0.237
UniProt Q16625_C409	inactive: -0.0726
UAP1L1 C332 (UniProt Q3KQV9)	inactive: 0.468
GLE1 C287 (UniProt Q53GS7)	inactive: 0.013
UniProt Q15149_C3821	inactive: 0.398
AMOT C1047 (UniProt Q4VCS5)	inactive: 0.316
EFTUD2 C842 (UniProt Q15029)	inactive: 0.204
PCM1 C1999 (UniProt Q15154)	inactive: 0.275
BAK1 C14 (UniProt Q16611)	inactive: 0.498
MAP7D1 C251 (UniProt Q3KQU3)	inactive: 0.401
PDS5A C327 (UniProt Q29RF7)	inactive: 0.448

Taken from above.
Value of UniProt Q16625_C409 under log2 ratio of iodoacetamide-alkyne labeling: inactive: -0.0726
Value of SUZ12 C325 (UniProt Q15022) under log2 ratio of iodoacetamide-alkyne labeling: active: 1.07
